Results: publication PMC4154660
These are yes or no findings as the source states them, for the method shown. Binding seen in cells or lysates may run through a third protein. A yes stands for co-enrichment or nearness to the bait. Other partners may have been found. For some of these results: A no says only that the protein was not detected with the bait. For some of these results: Tags and fused reporters may be left off the sequences shown.

Protein sequences, listed by entry. Tags and fused reporters are not part of them. Lines headed by an entry give the natural chain unless they say otherwise; changes in a name come on top.
UniProt F7VLP8: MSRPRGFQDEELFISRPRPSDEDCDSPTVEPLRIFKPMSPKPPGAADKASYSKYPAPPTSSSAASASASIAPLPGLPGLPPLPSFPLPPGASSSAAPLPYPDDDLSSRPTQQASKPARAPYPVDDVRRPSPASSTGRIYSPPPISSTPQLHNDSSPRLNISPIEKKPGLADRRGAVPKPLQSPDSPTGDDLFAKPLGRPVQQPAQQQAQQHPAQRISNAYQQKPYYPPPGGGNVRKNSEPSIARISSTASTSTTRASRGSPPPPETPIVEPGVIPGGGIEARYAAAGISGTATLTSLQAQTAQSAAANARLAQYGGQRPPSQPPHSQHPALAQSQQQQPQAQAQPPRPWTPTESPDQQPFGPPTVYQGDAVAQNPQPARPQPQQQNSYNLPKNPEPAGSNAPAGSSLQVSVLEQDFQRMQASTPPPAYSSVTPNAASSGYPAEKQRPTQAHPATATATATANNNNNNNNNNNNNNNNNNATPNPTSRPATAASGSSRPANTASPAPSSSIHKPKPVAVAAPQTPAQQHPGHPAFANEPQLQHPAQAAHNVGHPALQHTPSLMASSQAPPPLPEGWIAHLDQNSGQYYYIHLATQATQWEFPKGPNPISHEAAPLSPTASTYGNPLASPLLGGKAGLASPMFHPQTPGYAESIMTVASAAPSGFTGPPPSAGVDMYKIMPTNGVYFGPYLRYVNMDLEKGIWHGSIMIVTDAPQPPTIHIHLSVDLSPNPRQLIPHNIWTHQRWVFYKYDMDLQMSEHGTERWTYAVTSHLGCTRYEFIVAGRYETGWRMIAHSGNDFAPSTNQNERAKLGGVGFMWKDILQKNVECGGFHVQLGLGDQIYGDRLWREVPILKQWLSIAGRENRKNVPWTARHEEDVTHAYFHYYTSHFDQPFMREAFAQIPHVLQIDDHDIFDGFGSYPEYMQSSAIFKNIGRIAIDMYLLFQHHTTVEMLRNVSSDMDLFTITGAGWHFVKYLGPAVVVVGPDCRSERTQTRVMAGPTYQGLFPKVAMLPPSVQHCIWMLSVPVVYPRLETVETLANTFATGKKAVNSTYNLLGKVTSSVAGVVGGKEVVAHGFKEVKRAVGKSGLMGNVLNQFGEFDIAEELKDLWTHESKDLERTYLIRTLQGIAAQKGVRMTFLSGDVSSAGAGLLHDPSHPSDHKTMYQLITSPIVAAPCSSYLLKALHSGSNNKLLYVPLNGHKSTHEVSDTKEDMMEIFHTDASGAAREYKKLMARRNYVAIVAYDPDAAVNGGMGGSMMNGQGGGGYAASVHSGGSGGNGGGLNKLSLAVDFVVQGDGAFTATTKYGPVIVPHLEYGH
UniProt F7VN81: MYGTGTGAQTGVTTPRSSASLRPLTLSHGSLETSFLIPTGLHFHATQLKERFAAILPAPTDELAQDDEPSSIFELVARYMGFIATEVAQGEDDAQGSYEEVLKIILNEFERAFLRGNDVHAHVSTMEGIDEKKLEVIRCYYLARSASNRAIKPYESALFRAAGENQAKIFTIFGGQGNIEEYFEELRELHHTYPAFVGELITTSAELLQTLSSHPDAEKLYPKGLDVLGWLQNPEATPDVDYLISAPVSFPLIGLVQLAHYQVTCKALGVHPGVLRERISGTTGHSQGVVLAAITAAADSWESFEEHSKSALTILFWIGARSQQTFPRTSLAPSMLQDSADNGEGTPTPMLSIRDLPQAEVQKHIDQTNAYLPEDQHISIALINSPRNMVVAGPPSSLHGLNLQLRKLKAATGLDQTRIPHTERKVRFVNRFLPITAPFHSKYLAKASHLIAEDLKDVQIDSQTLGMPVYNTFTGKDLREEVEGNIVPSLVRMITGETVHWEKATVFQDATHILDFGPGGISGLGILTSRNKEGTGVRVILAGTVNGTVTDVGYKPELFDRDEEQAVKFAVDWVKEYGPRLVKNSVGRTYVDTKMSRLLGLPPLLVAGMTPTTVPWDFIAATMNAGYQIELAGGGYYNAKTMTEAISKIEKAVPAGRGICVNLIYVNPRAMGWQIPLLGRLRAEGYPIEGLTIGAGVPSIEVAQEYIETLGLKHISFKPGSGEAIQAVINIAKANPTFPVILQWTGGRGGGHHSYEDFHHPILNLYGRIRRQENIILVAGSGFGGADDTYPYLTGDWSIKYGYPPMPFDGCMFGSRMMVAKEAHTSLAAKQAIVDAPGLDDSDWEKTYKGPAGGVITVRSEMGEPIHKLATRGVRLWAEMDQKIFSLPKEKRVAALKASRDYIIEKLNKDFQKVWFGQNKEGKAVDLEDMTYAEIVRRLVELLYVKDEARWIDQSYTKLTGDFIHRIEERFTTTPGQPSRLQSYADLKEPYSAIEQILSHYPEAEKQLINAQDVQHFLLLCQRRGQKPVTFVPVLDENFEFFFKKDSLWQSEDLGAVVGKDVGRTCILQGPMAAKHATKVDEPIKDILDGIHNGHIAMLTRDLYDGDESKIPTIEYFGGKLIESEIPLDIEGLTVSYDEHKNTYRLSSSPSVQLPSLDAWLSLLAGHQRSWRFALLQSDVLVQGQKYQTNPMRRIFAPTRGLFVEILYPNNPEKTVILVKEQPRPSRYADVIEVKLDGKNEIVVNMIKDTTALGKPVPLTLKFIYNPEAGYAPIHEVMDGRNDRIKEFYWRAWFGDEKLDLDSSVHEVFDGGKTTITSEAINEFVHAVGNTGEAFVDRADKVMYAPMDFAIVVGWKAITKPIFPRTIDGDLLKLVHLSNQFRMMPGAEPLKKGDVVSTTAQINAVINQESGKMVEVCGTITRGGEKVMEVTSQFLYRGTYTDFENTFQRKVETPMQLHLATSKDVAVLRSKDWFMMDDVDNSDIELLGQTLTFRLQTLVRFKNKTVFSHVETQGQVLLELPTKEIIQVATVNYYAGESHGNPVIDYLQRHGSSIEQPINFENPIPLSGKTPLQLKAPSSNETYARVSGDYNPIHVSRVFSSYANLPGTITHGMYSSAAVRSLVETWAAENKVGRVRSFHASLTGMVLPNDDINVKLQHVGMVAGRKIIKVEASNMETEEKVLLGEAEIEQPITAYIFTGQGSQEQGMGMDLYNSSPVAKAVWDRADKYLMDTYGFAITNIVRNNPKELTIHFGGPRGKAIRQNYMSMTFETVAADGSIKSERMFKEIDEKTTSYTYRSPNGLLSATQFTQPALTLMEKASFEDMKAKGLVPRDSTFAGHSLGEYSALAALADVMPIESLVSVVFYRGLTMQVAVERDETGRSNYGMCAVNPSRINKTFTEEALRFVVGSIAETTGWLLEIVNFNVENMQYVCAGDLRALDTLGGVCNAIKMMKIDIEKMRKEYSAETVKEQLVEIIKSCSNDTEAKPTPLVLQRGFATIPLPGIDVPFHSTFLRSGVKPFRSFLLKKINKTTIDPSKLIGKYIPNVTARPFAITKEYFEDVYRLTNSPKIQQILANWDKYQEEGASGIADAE
UniProt F7VX13: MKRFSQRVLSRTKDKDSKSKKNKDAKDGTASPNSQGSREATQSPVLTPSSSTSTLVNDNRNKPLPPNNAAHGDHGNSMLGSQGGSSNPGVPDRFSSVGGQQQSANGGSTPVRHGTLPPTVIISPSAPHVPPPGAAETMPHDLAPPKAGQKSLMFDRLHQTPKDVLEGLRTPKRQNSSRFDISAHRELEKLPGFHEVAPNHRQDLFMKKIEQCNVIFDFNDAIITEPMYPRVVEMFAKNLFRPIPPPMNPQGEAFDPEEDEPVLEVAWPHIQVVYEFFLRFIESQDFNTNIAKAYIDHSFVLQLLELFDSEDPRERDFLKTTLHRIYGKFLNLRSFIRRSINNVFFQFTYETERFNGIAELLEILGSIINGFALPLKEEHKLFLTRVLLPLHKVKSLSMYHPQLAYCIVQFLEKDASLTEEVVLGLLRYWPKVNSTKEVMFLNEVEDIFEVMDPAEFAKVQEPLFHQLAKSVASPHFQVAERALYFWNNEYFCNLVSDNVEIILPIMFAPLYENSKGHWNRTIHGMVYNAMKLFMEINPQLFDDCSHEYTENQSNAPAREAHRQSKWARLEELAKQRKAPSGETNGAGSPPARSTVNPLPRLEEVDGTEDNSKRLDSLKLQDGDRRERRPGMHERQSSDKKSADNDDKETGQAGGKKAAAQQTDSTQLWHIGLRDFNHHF
UniProt F7W101: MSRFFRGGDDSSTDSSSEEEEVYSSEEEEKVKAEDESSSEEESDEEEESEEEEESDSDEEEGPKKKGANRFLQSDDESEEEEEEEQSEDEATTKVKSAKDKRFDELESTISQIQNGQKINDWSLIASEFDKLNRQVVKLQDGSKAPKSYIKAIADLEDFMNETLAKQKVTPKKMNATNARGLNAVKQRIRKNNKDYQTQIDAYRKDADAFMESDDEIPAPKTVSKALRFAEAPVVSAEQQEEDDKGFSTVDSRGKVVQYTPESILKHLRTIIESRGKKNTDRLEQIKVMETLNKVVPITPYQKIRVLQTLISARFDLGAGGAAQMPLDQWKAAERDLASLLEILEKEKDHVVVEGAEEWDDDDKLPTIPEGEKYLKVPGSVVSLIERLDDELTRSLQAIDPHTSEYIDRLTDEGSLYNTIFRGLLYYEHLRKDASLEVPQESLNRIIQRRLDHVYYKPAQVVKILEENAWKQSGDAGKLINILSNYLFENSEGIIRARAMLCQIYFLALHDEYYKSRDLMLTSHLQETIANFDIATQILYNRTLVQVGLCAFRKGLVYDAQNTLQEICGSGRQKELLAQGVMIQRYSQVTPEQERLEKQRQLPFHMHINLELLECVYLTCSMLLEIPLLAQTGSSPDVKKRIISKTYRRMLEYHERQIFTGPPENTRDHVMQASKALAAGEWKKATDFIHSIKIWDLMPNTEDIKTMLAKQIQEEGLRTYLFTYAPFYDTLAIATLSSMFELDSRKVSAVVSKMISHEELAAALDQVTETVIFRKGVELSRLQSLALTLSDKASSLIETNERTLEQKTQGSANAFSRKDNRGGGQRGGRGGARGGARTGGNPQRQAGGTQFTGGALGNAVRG
UniProt F7W538: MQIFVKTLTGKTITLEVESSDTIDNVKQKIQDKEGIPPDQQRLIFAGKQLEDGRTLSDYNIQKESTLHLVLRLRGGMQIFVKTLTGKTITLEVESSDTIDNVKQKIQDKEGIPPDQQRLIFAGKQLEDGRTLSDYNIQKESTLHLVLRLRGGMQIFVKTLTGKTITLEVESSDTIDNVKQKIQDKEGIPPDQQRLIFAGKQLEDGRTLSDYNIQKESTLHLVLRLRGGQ

B1: Duf1750 domain containing protein (SMAC_02833) (protein, UniProt F7VXL1 1-717)
chain: MAGDPSQNVHQDLLPHVHLLSTYRYAFQPRVELPEVTKWLTAAPKIARDTAPFFWTYLDCPNDGSIYLTWQPSGRRGVEFSSDGYIWSGPEIFYHQPAGNGLVLEAYIQRSGFRPGEQHTVHSRKRFRLVPGPAPVPNAPQVDPNLWIVHYGPADKQDRIHVQMVSVSPQMQQMINYRQQLFQMGQIVKKEFMLSDRVNWPQLPLPGRGQSMYAPPMPPRHIPPTMAYPPHPGAVAGSSKRRGGHGQAPGAHPNQMAGGQLHNLEGAFDDEEDVSRGDLFDHLTPREVSIARYQQNHEWMEEILSSPYQIGQIEVSDLGLGRKGALASLTEGIFEAQSTEAVDHGPKKPYTGHLAPGVADEFRKRVMEKNKADMEEIARMKAEHEKALASLRKNSTLMQAEQELRFAAQETGSEPWRLEGRLEDDEEGTSRQGQRNAGTIEEILASVEKLVGKPATVVHDVHRVEDGGYQESAPEPEPILPPAGQAPSMSRQPSQAGSQASGAIIGDSDIDMGGTAAGLLDQMNTAGGFSTTSTPQPLNLSANPSSAATPSAPNVASPLPPAGNQGGDDINMEDADAGASAKVATTASDQIPTASNPSGATTASVPQPPTTAGNSDAAGVAAQQITQPSSKPASAAPTPSGEGIDFSSLGDLDTAGEALAGYDPPSVGPGGDDLGDLNMDMEDSAFGDAFHGVSHSAGPDQSSPGAGLGSAGNTPPV
B2: Oligopeptide transporter (SMAC_03063) (protein, UniProt F7VUC0 1-886)
chain: MATTRDEKAVNITPAGSDQPPALSEKYDEKVGGVHEIGLDRIDSEEAQVIEGHLDVTEEDLLQAKAVAESLSLKDVVKLMKHVVGMHGRDPNFPHVVLEKIQEFLANEENILANPEKHHDIITEMKIEAALIQSNSPYAEVRAVVDNTDDPSTPCSTVRSWTIGILFSVILAFVNQLFSVRQPSISIESNVAQLLAFPLGKAWEKWMPYYEFTLFGTKHNLNPGKFSKKEHMLIAIMANTAKSLPYTQYIVWTQVLPQYFNQSYANSFAYQILIALSTNFIGYGLAGITRRFIVYPSYCVWPASLVTIALNSALHHEENHTVPGPFKKLYSMSRFKFFMWAFGAMFVYFWFPNYLFEALTFFSWMTWIAPNNLNLNILTGFQNGTGMFNPFPTFDWNVMLFDAVDPLMVPAFTTFNKTAGMAFFGFIILGLWYTNVWNTGYLPINSNRVFDHYGSLYNVSRAIDEKGMFDAEKYMDYSAAYLSAANTIVYFAFFAIYAATISHIILFHRAEIAIGFRNIWKSVKPKRWIKRNAAGESLEEEDVGYKDVHNRLMAVYPEVSELWYFGCLVIAMALGFAGVAAWPTYTTAGVVPYGLFLAIIFVIPIGIIKAMTGIEVTLNVLAEFIGGAWVEGNALAMNFFKSFGYVTCAHAISFANDLKLAHYIKIPPRHTFTAQMVATLISTFICTGVLNFQVNIENICQPNAPMRFFCPGINTFFTAAVLWGTIGPVKVFGVHGQYKWLLLGFPIGLCIPIIFWLIIRKFPRNKFIRQFHPVALFYGGLNWAPYSMSYCWPAVPIAWLSWIYVRNRYLAFWSKYNFVLSAAFSAGIAVAGIVMLFSVQWARVSVEWWGNEQPYKGCEDTACTIKTLSEGERFFPWWDANKVPAP
B3: Topoisomerase II-associated protein pat1 (SMAC_04662) (protein, UniProt F7W229 1-833)
chain: MSFFNFDQSRHNTAAPGFSQAHDPFASLANREEEAEEIDFEDTYDGLGDQLDETDDVFNDDTFGDDTGAPGPVGKDFDFFGQTAKVADVIEEENVRFNRQQPAAKAPQPVAQPSAYTSTAGPSYAGPSFGGPSYNYFPQAPAKPARTGYEKYHEQPIEDLQVDAALWGVAPKKQPPPPAQPAVPSAPSGGRKMLSLEEVEAQMRAQAKAATPSPAPQHQPHQIPHEQAYLYQQQAQNQQQAHFQAGVVEPLYHQPQGHPMTILQRPHSKPATPAQPSSQPPAIQQHQQPVAPQQPTQILQNPNRLSGDAAKIGLPVHPTPPTGPQGHRQQGSLPRQPPMVLHPAQLAQLSEEEKAAYLEQEAKRAKRNHKIFQMSRDNGIMTPQDKNFITRIQLQQLVAATGNPNEHGTDESLAEDFYYQVHSQIQAGHRQHPSQPLNQFAQTYLFQTGSRQGGMRRHNRGPENHMQRMEQQVQRAVEAAKNKPKNKQLVIEGSLGKISFSNAKTPKPLLNIKRNDSASDVKKAPHPINGRDKKSELKALELVYTTLMKMEDHERNMPMAPAEDDQEALNKVFAWSNEGQALNEQLWKALRVQDMEQPGRIHPFMALLCYNKGKKAIPRIFRHTNHEQRITIFTRIVLNLDQLDVVREAQVTTDDIQFNAAMRENIELFSAAIVTTLFTFMNELGLDLVAGILGLVCTRNVDIIAKSRIGASMLTMILSRAELIKHNGGGSEQDWRSWDMTYTQFFNLLEPSLPYIFPGSLATDQDTYVWQLLAAIGIGASPDQQQRLVIAVKDRVMDTVSLAKTLPPALATERLSNVNLFMRSIGLDVELLQ
B4: ATP-binding cassette sub-family f member 2 (SMAC_05099) (protein, UniProt F7W2N6 1-613)
chain: MPPSASKQKRLAEKAAKANKGKPVKEVELDAFGKPVVEDEPATKAEQLDEVKRLAQQMDKHGLSDRVTTGVLASTQASKDVKITSVSLVFHGRVLIKDATLELTLGRRYGLLGENGCGKSTLLKAIAAREYPVPEHVDIYLLNEGAPPSDLGALDWVVTEAKNELARLEMVAEKILEDEGPDSPLLEDLYDHIDKMDPSTFETRASLILTGLGFNKQTIQKKTKDMSGGWRMRVALAKALFVKPTLLLLDDPTAHLDLEACVWLEEYLKKWDRTLVLVSHSEDFLNGVCTSMIDMRLQTLIYYGGNYDTYHKTRAEQETNQMKAYQKQQDEITHIKKFIASAGTYANLVRQAKSRQKILDKMEADGFIQPVKQDRVFSFRFADVEKLPPPVLSFDNVTFSYSGDPKDDLYRHIDLGFDMDSRTALVGPNGVGKSTLLRLMTGKLSPTDGVVQRHTHLKLGLYSQHSAEQLDLTKSALDFVRDKYPDKSQDYQYWRQQLGKYGLSGESQTSLIGTLSDGQKSRIVFALLAIESPNMLLLDEPTNGLDIPTIDSLADAINAFTGGVIVVSHDFRLLDKIAKQILVCENKTIKRWEGSIADYKNYLRKKMISAGAV
B5: Malate synthase (SMAC_05223) (protein, UniProt F7VV16 1-542)
chain: MASVETLLQGVTILGPIEEHQRKILTPQALSFVALLHRSFNQTRKNLLERRKIRQAEIDRGVLPDFLPETKHIRENPTWKGAPPAPGLIDRRVEITGPTDRKMVVNALNSDVYTYMADFEDSSAPTWANMVNGQVNLYDAIRRQIDFKQGQKEYKLRTDRTLPTLIVRPRGWHLEEKHITIDGEPVSGSLFDFGLYFFHNAKELIKRGFGPYFYLPKMESHLEARLWNDAFNLAQDYIGIPRGTIRGTVLIETILAAFEMDEIIYELREHSSGLNCGRWDYIFSTIKKFRNHSSFVLPDRSCVTMTVPFMDAYVKLLIQTCHKRGVHAMGGMAAQIPIKDDKAANDKAMEGVRADKLREARAGHDGTWVAHPALASIALEVFNKHMPTPNQLFNRREDVQIGQQDLLNMNVPGSITEEGIRKNLNIGLGYMEAWIRGVGCVPINYLMEDAATAEVSRSQLWQWVKHGVTTAEGKRVDKGYALKLLKEQTDELAAKAPQGNKFKLAAQYFATQVTGEDYADFLTSLLYNEITSAGNSLPASKL
B6: Rho-GTPase-activating protein 8 (SMAC_06590) (protein, UniProt F7W709 1-879)
chain: MPGFADSFWSNDYAAGLGVLFGKLQQGVVENRQLLTIARMRAEAEDVYGQRLSEIAPAVDKIPNGFNRDDGASVRKAYEGVRTEMEDASKNHKKIAQNIRDLVVNPFTRWCDAHESRLQNSQEELQAKIKAHDKQAEVVKKLRSNYFNKCRLVEDLEEENKLAFQDPESAASPKPKQPIPEIKVEPEEEEDDEPFEIGDETYSPDQIKKILAHMLNNIKMGETKVPILGTYQNTSAGTDIVEYFQRHMGTTSVSYAERIGQDLITHGFLRLIGNVGNTFANSSRMFYQWRPQAFKLAGVPEKKAPVNRTFSMPLSNGSEGSDSPVVGAVSEYLANWNIPGVNNGRPNETPSERMRREAREADEKYKAAVQKLDEMRCELEEAIFLHLKFLERCELDRLKAIKTVVLDFSGTISNVIPSLQSTVDNMMLYQETVQPLGDLRYLLENYRTGSFVPKVVTYENYYNKVDEQTFGVDLEARARADKKRVPIIVTTLLTYLDHHYPDLEGDEARRGVWLHEVSLKDTHKLRNKVNNGKPPSLEVFAEFDVATVASLLKLYLLELPDSLVSSHVYEIIRTIYNTTQDSSEDARIPVLQQTLSQLRLTNIATLDACMNHFTRLIELTSADEDYVAKLATTLAPCILRPRTETSLTMEEKHAYRLIRDLFAHKDAIFSELKRMSTLGASASISGNNNRPRAISTDESNRRAHMEERNRLILEKANGGRSRATSPAPGPRAHRRDRSVGGPETRFPISPSGITSPTSSQQHGKRPSLGPVLPKRSSLEVPDEAGSSLSHPADGNLNGAAPAEAGTPKSETADPLADKRSSLVEKRNSLGRSGARISAGRRIPVVASTTASQQQSGSEKENSTGHGHAPVTLTDAPMDY
B7: ATP citrate lyase ACL1 (enzyme, UniProt O93988 1-674)
chain: MPSATSTNGANGNGNGNGASASPAPGNLSANDNIRRFAAPSRPLSPLPAHALFNEKTRCFVYGLQPRAVQGMLDFDFICKRSTPSVAGIIYTFGGQFVSKMYWGTSETLLPVYQEVQKAIAKHPDVDVVVNFASSRSVYSSTMELMEHPQIKTIAIIAEGVPERRAREIAYVAKKKGITIIGPATVGGIKPGCFKIGNTGGMMDNIVASKLYRKGSVGYVSKSGGMSNELNNIISQTTDGVYEGVAIGGDRYPGTTFIDHLLRYQADPACKILVLLGEVGGVEEYKVIEAVKQGIITKPIVAWAIGTCASMFKTEVQFGHAGAFANSQLETAATKNKSMREAGFYVPDTFEDMPALLKQVYDKLVADGTIVPAPEPVVPKIPIDYSWAQELGLIRKPAAFISTISDDRGQELLYAGMPISDVFREEIGIGGVMSLLWFRRRLPDYAAKFLEMVLMLTADHGPAVSGAMNTIITTRAGKDLISSLVAGLLTIGSRFGGALDGAAEEFTKAFDKGLSPREFVDTMRKQNKLIPGIGHRVKSRNNPDLRVELVKEYVKAKFPSSKLLDYALAVETVTTSKKDNLILNVDGCIAVCFVDLLRNCGAFSTEEAEDYLSMGVLNGLFVLGRSIGLIAHYLDQKRLRTGLYRHPWDDITYLLPSLQQPGPPGTEGRVEVQI
B8: Histone H2B (SMAC_08323) (protein, UniProt F7VV81 1-137)
chain: MPPKPADKKPASKAPATASKAPEKKDAGKKTAASGDKKKRTKARKETYSSYIYKVLKQVHPDTGISNRAMSILNSFVNDIFERVATEASKLAAYNKKSTISSREIQTSVRLILPGELAKHAVSEGTKAVTKYSSSTK
B9: Woronin body protein HEX1 (protein, UniProt F7VRA2 1-176)
chain: MGYYDEDSHGHADADAQPRATGTTGTGSASQTVTIPCHHIRLGDILILQGRPCQVIRISTSAATGQHRYLGVDLFTKQLHEESSFVSNPAPSVVVQTMLGPVFKQYRVLDMQDGSIVAMTETGDVKQNLPVIDQSSLWNRLQKAFESGRGSVRVLVVSDHGREMAVDMKVVHGSRL

What follows are molecules tested against PRO40-FLAG (Sordaria macrospora) (UniProt F7VLP8) (assay: affinity purification with mass spectrometry; FLAG-AP with MudPIT of PRO40-FLAG from strain T184.2NS11 (Δpro40::pro40-3xFLAG) on anti-FLAG M2 gel, 250 mM NaCl extraction, 150 mM NaCl washes, 3xFLAG peptide elution; wildtype extract as control).

Molecule	binding
Fatty acid synthase beta subunit dehydratase (SMAC_00840) (from UniProt F7VN81 1-2092)	binds
putative regulatory subunit of protein phosphatase PP2A, RTS1 (from UniProt F7VX13)	binds
Eukaryotic translation initiation factor 3 (SMAC_02110) (from UniProt F7W101)	binds
Polyubiquitin (SMAC_07925) (from UniProt F7W538)	binds

Molecular target: PRO40-FLAG (Sordaria macrospora) (UniProt F7VLP8)
Assay: as above
Remark: another data set of the same source

Molecule	binding
B1	binds
B2	binds
B3	binds
B4	binds
B5	binds
B6	binds
B7	binds
B8	binds
B9	no binding
